Here are results for 4 molecules from publication PMC4264851.

No constants are given. Whether binding was seen depends on the method and setting. For some of these results: In cells and extracts the contact can be indirect. Some entries that bind do so weakly or less than the wild type. Tags and fused reporters may be left off the sequences shown.

One experiment has as its target T1, Pwp2-TAP (S. cerevisiae) (UniProt P25635).
T1 sequence: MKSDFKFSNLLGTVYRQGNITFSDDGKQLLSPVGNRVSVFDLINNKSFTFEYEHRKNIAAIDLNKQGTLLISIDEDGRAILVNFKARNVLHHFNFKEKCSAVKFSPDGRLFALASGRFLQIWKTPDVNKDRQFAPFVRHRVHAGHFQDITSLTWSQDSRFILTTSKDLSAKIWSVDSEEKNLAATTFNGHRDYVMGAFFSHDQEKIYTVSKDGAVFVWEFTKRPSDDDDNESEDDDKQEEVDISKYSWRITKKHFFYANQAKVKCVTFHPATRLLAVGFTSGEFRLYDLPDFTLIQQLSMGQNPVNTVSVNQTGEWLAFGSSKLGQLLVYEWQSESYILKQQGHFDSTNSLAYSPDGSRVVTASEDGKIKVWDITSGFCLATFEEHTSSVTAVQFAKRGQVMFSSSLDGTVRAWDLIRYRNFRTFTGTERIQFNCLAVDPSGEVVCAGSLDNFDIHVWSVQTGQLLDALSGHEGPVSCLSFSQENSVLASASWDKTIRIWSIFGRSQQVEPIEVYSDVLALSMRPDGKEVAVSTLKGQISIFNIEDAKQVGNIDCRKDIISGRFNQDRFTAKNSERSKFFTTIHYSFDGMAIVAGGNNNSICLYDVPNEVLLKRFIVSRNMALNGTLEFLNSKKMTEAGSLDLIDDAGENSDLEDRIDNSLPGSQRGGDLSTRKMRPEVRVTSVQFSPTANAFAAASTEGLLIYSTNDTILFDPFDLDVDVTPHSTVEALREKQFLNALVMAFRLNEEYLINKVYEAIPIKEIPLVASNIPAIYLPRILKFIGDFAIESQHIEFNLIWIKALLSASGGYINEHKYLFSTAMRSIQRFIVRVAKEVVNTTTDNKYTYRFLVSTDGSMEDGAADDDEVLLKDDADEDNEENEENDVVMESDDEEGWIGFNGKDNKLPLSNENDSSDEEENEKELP
The experiment can be described thus: SEC; bacmid K1991; IgG Sepharose/TEV eluate (Pwp2-TAP) fractionated on Superose 6; fractions by SDS-PAGE, MS and Western blot (anti-CBP, anti-HA). Background: SEC sorts molecules by how far they enter the pores of the column.

In a further experiment the target is T2, Utp4-TAP (S. cerevisiae) (UniProt Q06679).
T2 sequence: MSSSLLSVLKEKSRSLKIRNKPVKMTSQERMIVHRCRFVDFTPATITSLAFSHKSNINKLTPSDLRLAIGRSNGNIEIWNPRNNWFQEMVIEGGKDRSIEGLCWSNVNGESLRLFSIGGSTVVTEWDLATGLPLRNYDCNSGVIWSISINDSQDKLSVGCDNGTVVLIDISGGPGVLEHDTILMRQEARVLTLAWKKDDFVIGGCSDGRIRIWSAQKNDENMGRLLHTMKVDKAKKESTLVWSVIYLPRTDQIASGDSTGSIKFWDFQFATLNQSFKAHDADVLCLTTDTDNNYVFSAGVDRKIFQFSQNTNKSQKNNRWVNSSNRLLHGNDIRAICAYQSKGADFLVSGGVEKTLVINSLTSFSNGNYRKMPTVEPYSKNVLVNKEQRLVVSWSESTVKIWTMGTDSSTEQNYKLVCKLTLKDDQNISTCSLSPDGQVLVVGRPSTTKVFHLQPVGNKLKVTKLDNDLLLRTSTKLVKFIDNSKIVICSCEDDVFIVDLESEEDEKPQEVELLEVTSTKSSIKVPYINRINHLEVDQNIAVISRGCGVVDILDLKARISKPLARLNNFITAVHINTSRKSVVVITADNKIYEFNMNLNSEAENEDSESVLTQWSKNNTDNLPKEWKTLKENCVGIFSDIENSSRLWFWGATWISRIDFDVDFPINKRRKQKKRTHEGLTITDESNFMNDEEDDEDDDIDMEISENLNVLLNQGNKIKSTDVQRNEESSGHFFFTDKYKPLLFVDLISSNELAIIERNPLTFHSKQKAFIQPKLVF
As to the kind of experiment: co-IP; only Utp4-TAP, Utp8-FLAG and Utp9 co-expressed in SF21 cells (bacmid K2212); bait Utp4-TAP on IgG-coupled beads; resin before TEV elution analysed by Western blot with anti-FLAG antibody.

B1: Utp21 (protein, UniProt Q06078 1-939)
chain: MSIDLKKRKVEEDVRSRGKNSKIFSPFRIIGNVSNGVPFATGTLGSTFYIVTCVGKTFQIYDANTLHLLFVSEKETPSSIVALSAHFHYVYAAYENKVGIYKRGIEEHLLELETDANVEHLCIFGDYLCASTDDNSIFIYKKSDPQDKYPSEFYTKLTVTEIQGGEIVSLQHLATYLNKLTVVTKSNVLLFNVRTGKLVFTSNEFPDQITTAEPAPVLDIIALGTVTGEVIMFNMRKGKRIRTIKIPQSRISSLSFRTDGSSHLSVGTSSGDLIFYDLDRRSRIHVLKNIHRESYGGVTQATFLNGQPIIVTSGGDNSLKEYVFDPSLSQGSGDVVVQPPRYLRSRGGHSQPPSYIAFADSQSHFMLSASKDRSLWSFSLRKDAQSQEMSQRLHKKQDGGRVGGSTIKSKFPEIVALAIENARIGEWENIITAHKDEKFARTWDMRNKRVGRWTFDTTDDGFVKSVAMSQCGNFGFIGSSNGSITIYNMQSGILRKKYKLHKRAVTGISLDGMNRKMVSCGLDGIVGFYDFNKSTLLGKLKLDAPITAMVYHRSSDLFALALDDLSIVVIDAVTQRVVRQLWGHSNRITAFDFSPEGRWIVSASLDSTIRTWDLPTGGCIDGIIVDNVATNVKFSPNGDLLATTHVTGNGICIWTNRAQFKTVSTRTIDESEFARMALPSTSVRGNDSMLSGALESNGGEDLNDIDFNTYTSLEQIDKELLTLSIGPRSKMNTLLHLDVIRKRSKPKEAPKKSEKLPFFLQLSGEKVGDEASVREGIAHETPEEIHRRDQEAQKKLDAEEQMNKFKVTGRLGFESHFTKQLREGSQSKDYSSLLATLINFSPAAVDLEIRSLNSFEPFDEIVWFIDALTQGLKSNKNFELYETFMSLLFKAHGDVIHANNKNQDIASALQNWEDVHKKEDRLDDLVKFCMGVAAFVTTA
Regarding B1, the binding entry with Pwp2-TAP (S. cerevisiae) is reported as “binds”.

B2: Utp13 (protein, UniProt Q05946 1-817)
chain: MDLKTSYKGISLNPIYAGSSAVATVSENGKILATPVLDEINIIDLTPGSRKILHKISNEDEQEITALKLTPDGQYLTYVSQAQLLKIFHLKTGKVVRSMKISSPSYILDADSTSTLLAVGGTDGSIIVVDIENGYITHSFKGHGGTISSLKFYGQLNSKIWLLASGDTNGMVKVWDLVKRKCLHTLQEHTSAVRGLDIIEVPDNDEPSLNLLSGGRDDIINLWDFNMKKKCKLLKTLPVNQQVESCGFLKDGDGKRIIYTAGGDAIFQLIDSESGSVLKRTNKPIEELFIIGVLPILSNSQMFLVLSDQTLQLINVEEDLKNDEDTIQVTSSIAGNHGIIADMRYVGPELNKLALATNSPSLRIIPVPDLSGPEASLPLDVEIYEGHEDLLNSLDATEDGLWIATASKDNTAIVWRYNENSCKFDIYAKYIGHSAAVTAVGLPNIVSKGYPEFLLTASNDLTIKKWIIPKPTASMDVQIIKVSEYTRHAHEKDINALSVSPNDSIFATASYDKTCKIWNLENGELEATLANHKRGLWDVSFCQYDKLLATSSGDKTVKIWSLDTFSVMKTLEGHTNAVQRCSFINKQKQLISCGADGLIKIWDCSSGECLKTLDGHNNRLWALSTMNDGDMIVSADADGVFQFWKDCTEQEIEEEQEKAKLQVEQEQSLQNYMSKGDWTNAFLLAMTLDHPMRLFNVLKRALGESRSRQDTEEGKIEVIFNEELDQAISILNDEQLILLMKRCRDWNTNAKTHTIAQRTIRCILMHHNIAKLSEIPGMVKIVDAIIPYTQRHFTRVDNLVEQSYILDYALVEMDKLF
Turning to B2, the binding result with Pwp2-TAP (S. cerevisiae) is given as “binds”.

B3: Utp8-FLAG (protein, UniProt P53276 1-713)
chain: MPSLSQPFRLATLPKIASLSNFSLQADYVQVADGTFNESTNNITLGISGSSISQYIINPTPKLTFDYPIPSTNIITACNAEKGQANIDGNIEASTDDEANNEKTINTQKKRNVEIWAFGLMVNKGNYTLNVITKALEDTTDTSNDHLSESDIDNKAYTGSDEFLSQYKIKAKAKVMSIKIDTKNSLVIAILQNGLIEIFDFKLTLLHSFDISYDNLKYAKWFTENGTEYVFVLCPLQDDKVCYKLLELTDCGSGESSPIKELSSTIIEGFSFENSKLCYQFGKLYKLNQGKIYIYSLPHCQLQQVIEFPMVDKLSPGDDLISFQPVSVNRVLLTVNNVIYLLDLLHCSTLSQRELTHVKTFQLLKSAVINSEKSHNSKTIAIGISTKNGPNPTSSLEIINIDVGTNTLKDSLGKSFQVGNNDSSVILKPLFDDKDINDKRVKCNDVSGDSSVPVLHCNEVIEKLSALQDNDITSFDDIFFKELKIKEEHYTEKDRYISDPGFLNKVLDLIFGKFSGNDYPKTLTFLLTHPLFPLSRTRNLLSLLRDQPRLFKQAIVTCPNLPLNELLEELFSIRNRELLLDISFRILQDFTRDSIKQEMKKLSKLDVQNFIEFITSGGEDSSPECFNPSQSTQLFQLLSLVLDSIGLFSLEGALLENLTLYIDKQVEIAERNTELWNLIDTKGFQHGFASSTFDNGTSQKRALPTYTMEYLDI
Regarding B3, in the experiment with Utp4-TAP (S. cerevisiae), the binding entry is “binds weakly”.

B4: Utp12-FLAG (protein, UniProt Q12220 1-943)
chain: MVKSYQRFEQAAAFGVIASNANCVWIPASSGNSNGSGPGQLITSALEDVNIWDIKTGDLVSKLSDGLPPGASDARGAKPAECTYLEAHKDTDLLAVGYADGVIKVWDLMSKTVLLNFNGHKAAITLLQFDGTGTRLISGSKDSNIIVWDLVGEVGLYKLRSHKDSITGFWCQGEDWLISTSKDGMIKLWDLKTHQCIETHIAHTGECWGLAVKDDLLITTGTDSQVKIWKLDIENDKMGGKLTEMGIFEKQSKQRGLKIEFITNSSDKTSFFYIQNADKTIETFRIRKEEEIARGLKKREKRLKEKGLTEEEIAKSIKESYSSFILHPFQTIRSLYKIKSASWTTVSSSKLELVLTTSSNTIEYYSIPYEKRDPTSPAPLKTHTIELQGQRTDVRSIDISDDNKLLATASNGSLKIWNIKTHKCIRTFECGYALTCKFLPGGLLVILGTRNGELQLFDLASSSLLDTIEDAHDAAIWSLDLTSDGKRLVTGSADKTVKFWDFKVENSLVPGTKNKFLPVLKLHHDTTLELTDDILCVRVSPDDRYLAISLLDNTVKVFFLDSMKFYLSLYGHKLPVLSIDISFDSKMIITSSADKNIKIWGLDFGDCHKSLFAHQDSIMNVKFLPQSHNFFSCSKDAVVKYWDGEKFECIQKLYAHQSEVWALAVATDGGFVVSSSHDHSIRIWEETEDQVFLEEEKEKELEEQYEDTLLTSLEEGNGDDAFKADASGEGVEDEASGVHKQTLESLKAGERLMEALDLGIAEIEGLEAYNRDMKLWQRKKLGEAPIKPQGNAVLIAVNKTPEQYIMDTLLRIRMSQLEDALMVMPFSYVLKFLKFIDTVMQNKTLLHSHLPLICKNLFFIIKFNHKELVSQKNEELKLQINRVKTELRSALKSTEDDLGFNVQGLKFVKQQWNLRHNYEFVDEYDQQEKESNSARKRVFGTVI
For B4, the binding entry with Pwp2-TAP (S. cerevisiae) is on record as “binds”.
